Some results were stated once for a whole list of compounds, not compound by compound.
Legend:
Type in all cases: in vivo
[1] = test system: Plutella xylostella; assay: Insecticidal Test on Plutella xylostella; conditions: 500 ppm, Chinese cabbage seedlings with laid eggs dipped for about 30 seconds, 25° C., 6 days after the dip treatment
Description: Insecticidal Test on Plutella xylostella
Adults of Plutella xylostella were released onto Chinese cabbage seedlings and allowed to lay eggs thereon. At 2 days after the release of the adults, the Chinese cabbage seedlings with laid eggs were dipped for about 30 seconds in agrochemical dispersions diluted to 500 ppm, each of which contained a different condensed heterocyclic compound represented by the general formula (1) of the present invention as an active ingredient. After air-dried, the seedlings were kept in a thermostatic chamber at 25° C. At 6 days after the dip treatment, the number of hatched larvae per plot was counted, the mortality rate was calculated according to the formula shown below, and the insecticidal efficacy was evaluated according to the criteria of Test Example 2. This test was conducted in triplicate using 10 adults of Plutella xylostella per plot. Corrected mortality rate(%)=100×(Number of hatched larvae in a non-treatment plot−Number of hatched larvae in a treatment plot)/Number of hatched larvae in a non-treatment plot [Math. 3]

[2] = test system: Laodelphax striatellus; assay: Insecticidal Test on Laodelphax striatellus; conditions: 500 ppm, rice plant seedlings dipped for 30 seconds, 3rd-instar larvae, 8 days after the inoculation
Description: Insecticidal Test on Laodelphax striatellus
The condensed heterocyclic compounds represented by the general formula (1) of the present invention or salts thereof were separately dispersed in water and diluted to 500 ppm. Rice plant seedlings (variety: Nihonbare) were dipped in the agrochemical dispersions for 30 seconds. After air-dried, each seedling was put into a separate glass test tube and inoculated with ten 3rd-instar larvae of Laodelphax striatellus, and then the glass test tubes were capped with cotton plugs. At 8 days after the inoculation, the numbers of surviving larvae and dead larvae were counted, the corrected mortality rate was calculated according to the formula shown below, and the insecticidal efficacy was evaluated according to the criteria shown below. Corrected mortality rate(%)=100×(Survival rate in a non-treatment plot−Survival rate in a treatment plot)/Survival rate in a non-treatment plot [Math. 2] Corrected Mortality Rate A: the corrected mortality rate is 100%. B: the corrected mortality rate is 90 to 99%. C: the corrected mortality rate is 80 to 89%. D: the corrected mortality rate is 50 to 79%.

[3] = test system: Myzus persicae; assay: Test for Control Efficacy on Myzus persicae; conditions: 500 ppm, foliar application to potted Chinese cabbage plants, 6 days after the foliar application

Structure (SMILES) | insecticidal efficacy (corrected mortality rate) [1] | insecticidal efficacy (corrected mortality rate) [2] | control efficacy (control rate) [3]
CCS(=O)(=O)c1cc2ccc(Br)cc2nc1-c1nc2cc(C(F)(F)F)cn(CC(F)(F)F)c-2c1F [Compound 2-100] | A (the corrected mortality rate is 100%) | A (the corrected mortality rate is 100%) | A (the control rate is 100%)
CCn1cc(C(F)(F)F)cc2nc(-c3ncc(-c4ccc(Cl)c(F)c4)cc3S(=O)(=O)CC)c(Cl)c1-2 [Compound 1-46] | A (the corrected mortality rate is 100%) | A (the corrected mortality rate is 100%) | A (the control rate is 100%)
C#CCn1cc(C(F)(F)F)cc2nc(-c3ncc(-c4cccc(C(F)(F)F)c4)cc3S(=O)(=O)CC)c(Cl)c1-2 [Compound 1-18] | A (the corrected mortality rate is 100%) | A (the corrected mortality rate is 100%) | A (the control rate is 100%)
C#CCn1cc(C(F)(F)F)cc2nc(-c3ncc(C4CC4)cc3S(=O)(=O)CC)c(F)c1-2 [Compound 1-88] | A (the corrected mortality rate is 100%) | A (the corrected mortality rate is 100%) | A (the control rate is 100%)
CCS(=O)(=O)c1cc(-c2ccc(F)cc2)cnc1-c1nc2cc(C(F)(F)F)cn(C)c-2c1F [Compound 1-23] | A (the corrected mortality rate is 100%) | A (the corrected mortality rate is 100%) | A (the control rate is 100%)
CCCCn1cc(C(F)(F)F)cc2nc(-c3ncc(-c4cccc(C(F)(F)F)c4)cc3S(=O)(=O)CC)c(Cl)c1-2 [Compound 1-19] | A (the corrected mortality rate is 100%) | A (the corrected mortality rate is 100%) | A (the control rate is 100%)
CCn1cc(C(F)(F)F)cc2nc(-c3ncc(-c4ccc(F)cc4)cc3S(=O)(=O)CC)c(Br)c1-2 [Compound 1-25] | A (the corrected mortality rate is 100%) | A (the corrected mortality rate is 100%) | A (the control rate is 100%)
CCn1cc(C(F)(F)F)cc2nc(-c3ncc(OCc4ccc(C(F)(F)F)cc4)cc3S(=O)(=O)CC)c(Cl)c1-2 [Compound 1-34] | A (the corrected mortality rate is 100%) | A (the corrected mortality rate is 100%) | A (the control rate is 100%)
CCOCn1cc(C(F)(F)F)cc2nc(-c3ncc(C4CC4)cc3S(=O)(=O)CC)c(F)c1-2 [Compound 1-85] | A (the corrected mortality rate is 100%) | A (the corrected mortality rate is 100%) | A (the control rate is 100%)
CCOc1cnc(-c2nc3cc(C(F)(F)F)cn(CC)c-3c2Cl)c(S(=O)(=O)CC)c1 [Compound 1-9] | A (the corrected mortality rate is 100%) | A (the corrected mortality rate is 100%) | A (the control rate is 100%)
CCS(=O)(=O)c1cc(-c2ccc(F)c(Cl)c2)cnc1-c1nc2cc(C(F)(F)F)cn(C)c-2c1Cl [Compound 1-47] | A (the corrected mortality rate is 100%) | A (the corrected mortality rate is 100%) | A (the control rate is 100%)
CCn1cc(C(F)(F)F)cc2nc(-c3nc4cc(C(F)(F)F)ccc4cc3S(=O)(=O)CC)c(F)c1-2 [Compound 2-78] | A (the corrected mortality rate is 100%) | A (the corrected mortality rate is 100%) | A (the control rate is 100%)
CCS(=O)(=O)c1cc(-c2cccc(C(F)(F)F)c2)cnc1-c1nc2cc(C(F)(F)F)cn(COC)c-2c1Cl [Compound 1-75] | A (the corrected mortality rate is 100%) | A (the corrected mortality rate is 100%) | A (the control rate is 100%)
CCn1cc(C(F)(F)F)cc2nc(-c3ncc(I)cc3S(=O)(=O)CC)cc1-2 [Compound 1-4] | A (the corrected mortality rate is 100%) | A (the corrected mortality rate is 100%) | A (the control rate is 100%)
CCS(=O)(=O)c1cc(-c2cccc(C(F)(F)F)c2)cnc1-c1nc2cc(C(F)(F)F)cn(CC(F)(F)F)c-2c1F [Compound 1-80] | A (the corrected mortality rate is 100%) | A (the corrected mortality rate is 100%) | A (the control rate is 100%)
CCS(=O)(=O)c1cc(C2CC2)cnc1-c1nc2cc(C(F)(F)F)cn(CC(F)F)c-2c1Cl [Compound 1-92] | A (the corrected mortality rate is 100%) | A (the corrected mortality rate is 100%) | A (the control rate is 100%)
CCS(=O)(=O)c1cc(C2CC2)cnc1-c1nc2cc(C(F)(F)F)cn(COC)c-2c1F [Compound 1-91] | A (the corrected mortality rate is 100%) | A (the corrected mortality rate is 100%) | A (the control rate is 100%)
CCS(=O)(=O)c1cc(-c2ccc(F)c(C)c2)cnc1-c1nc2cc(C(F)(F)F)cn(C)c-2c1Cl [Compound 1-55] | A (the corrected mortality rate is 100%) | A (the corrected mortality rate is 100%) | A (the control rate is 100%)
CCS(=O)(=O)c1cc(C2CC2)cnc1-c1nc2cc(C(F)(F)F)cn(CC(F)(F)F)c-2c1F [Compound 1-86] | A (the corrected mortality rate is 100%) | A (the corrected mortality rate is 100%) | A (the control rate is 100%)
CCn1cc(C(F)(F)F)cc2nc(-c3ncc(-c4ccc(F)cc4)cc3S(=O)(=O)CC)c(C#N)c1-2 [Compound 1-73] | A (the corrected mortality rate is 100%) | A (the corrected mortality rate is 100%) | A (the control rate is 100%)
CCn1cc(C(F)(F)F)cc2nc(-c3ncc(-c4ccc(F)cc4)cc3S(=O)(=O)CC)c(C)c1-2 [Compound 1-28] | A (the corrected mortality rate is 100%) | A (the corrected mortality rate is 100%) | A (the control rate is 100%)
CCS(=O)(=O)c1cc(-c2cccc(OC(F)(F)F)c2)cnc1-c1nc2cc(C(F)(F)F)cn(C)c-2c1Cl [Compound 1-43] | A (the corrected mortality rate is 100%) | A (the corrected mortality rate is 100%) | A (the control rate is 100%)
CCS(=O)(=O)c1cc(-c2ccc(F)c(F)c2)cnc1-c1nc2cc(C(F)(F)F)cn(C)c-2c1Cl [Compound 1-49] | A (the corrected mortality rate is 100%) | A (the corrected mortality rate is 100%) | A (the control rate is 100%)
CCS(=O)(=O)c1cc(-c2cccc(C(F)(F)F)c2)cnc1-c1nc2cc(C(F)(F)F)cn(CC#N)c-2c1Cl [Compound 1-17] | A (the corrected mortality rate is 100%) | A (the corrected mortality rate is 100%) | A (the control rate is 100%)
CCn1cc(C(F)(F)F)cc2nc(-c3ncc(-c4cc(C(F)(F)F)ccc4F)cc3S(=O)(=O)CC)c(Cl)c1-2 [Compound 1-58] | A (the corrected mortality rate is 100%) | A (the corrected mortality rate is 100%) | A (the control rate is 100%)
CCn1cc(C(F)(F)F)cc2nc(-c3nc(-n4cncn4)ccc3S(=O)(=O)CC)c(Cl)c1-2 [Compound 1-38] | A (the corrected mortality rate is 100%) | A (the corrected mortality rate is 100%) | A (the control rate is 100%)
